PubChem BioAssay AID504774 – Drosophila RNAi Screening Center, 2011
Assay: 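Fly genes whose loss alters survival after alkylation damage to DNA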 (primary screen). System: Drosophila Kc167 cells. Knock-down reagent: long dsRNA against Drosophila genes, about 0.25 µg dsRNA per well. Time to read-out: about 6 days: 3 days knock-down, then 3 days with or without MMS. Treatment: methyl methanesulphonate 0.004% (w/v) for 3 days after knock-down. Measured: 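Viability in wells given MMS, read as ATP luminescence, normalised by quantiles plate by plate and averaged across replicates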. Scale: mean viability with MMS: higher = more surviving cells after MMS.
In all, the deposit lists about 23,000 reagents; this is a random part of those that have a named target and a result. 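Values are quantile-normalised luminescence on an arbitrary scale; higher means more cells surviving MMS.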 A plus sign joins genes that one reagent is predicted to hit. Further read-outs or replicates are left out here.

| target | amplicon | mean viability with MMS |
| --- | --- | --- |
| CG32457 | DRSC11596 | 3.54e6 |
| CG32457 | DRSC21722 | 3.26e6 |
| Jon25Bii (Jonah 25Bii) | DRSC03114 | 3.52e6 |
| eIF2A (eukaryotic translation initiation factor 2A) | DRSC11825 | 3.56e6 |
| CG18577 | DRSC15352 | 3.45e6 |
| CG42527 (retired record) + Hr4 | DRSC18495 | 3.74e6 |
| CG42527 (retired record) + Hr4 | DRSC22269 | 2.54e6 |
| CG42527 (retired record) + Hr4 | DRSC22677 | 3.36e6 |
| CG42527 (retired record) + Hr4 | DRSC23080 | 3.49e6 |
| CG42527 (retired record) + Hr4 | DRSC23251 | 2.92e6 |
| CG10562 | DRSC14257 | 3.44e6 |
| Fatp2 (Fatty acid transport protein 2) | DRSC03971 | 3.35e6 |
| Fatp2 (Fatty acid transport protein 2) | DRSC04178 | 3.84e6 |
| Fatp2 (Fatty acid transport protein 2) | DRSC04330 | 3.60e6 |
| CG15358 | DRSC00388 | 3.58e6 |
| AsnS (Asparagine synthetase) | DRSC11468 | 3.55e6 |
| Spn43Ad (Serpin 43Ad) | DRSC06770 | 3.62e6 |
| Nup37 (Nucleoporin 37kD) | DRSC14419 | 3.59e6 |
| halo | DRSC00705 | 3.51e6 |
| CCHa1 (CCHamide-1) | DRSC14821 | 3.21e6 |
| Rat1 (Rat1 5'-3' exoribonuclease) | DRSC02044 | 3.44e6 |
| Tsp42Ed (Tetraspanin 42Ed) | DRSC05940 | 3.59e6 |
| mtm (myotubularin) | DRSC03576 | 3.45e6 |
| Tomosyn | DRSC19365 | 3.16e6 |
| Tomosyn | DRSC19692 | 3.70e6 |
| Tomosyn | DRSC19782 | 3.43e6 |
| Tomosyn | DRSC19842 | 3.59e6 |
| CG10433 | DRSC04068 | 3.66e6 |
| mRpL18 (mitochondrial ribosomal protein L18) | DRSC06142 | 3.54e6 |
| tll (tailless) | DRSC17085 | 3.59e6 |
| CG13360 | DRSC18536 | 3.38e6 |
| CG31759 | DRSC01230 | 3.39e6 |
| CG10650 | DRSC02085 | 3.65e6 |
| Hmg-2 (High mobility group protein 2) | DRSC04554 | 3.65e6 |
| CG31446 | DRSC13111 | 3.34e6 |
| CG17549 | DRSC02625 | 3.58e6 |
| CG14007 | DRSC02339 | 3.47e6 |
| CG16779 | DRSC15153 | 3.52e6 |
| CG12645 | DRSC17851 | 3.60e6 |
| Gip (GIP-like) | DRSC18667 | 1.85e6 |
| Nnk (Nicknack) | DRSC15274 | 3.55e6 |
| p130CAS + Dic61B | DRSC08588 | 3.42e6 |
| Or85e (retired record) | DRSC16768 | 3.42e6 |
| LTV1 (LTV1 ribosome biogenesis factor) | DRSC05951 | 3.38e6 |
| CG8043 | DRSC16368 | 3.71e6 |
| zfh1 (Zn finger homeodomain 1) | DRSC14014 | 3.54e6 |
| zfh1 (Zn finger homeodomain 1) | DRSC17098 | 3.34e6 |
| CG9231 | DRSC11054 | 3.51e6 |
| Acox57D-p (acyl-Coenzyme A oxidase at 57D proximal) | DRSC04560 | 3.53e6 |
| dco (discs overgrown) | DRSC16929 | 3.24e6 |
| CG33307 | DRSC01349 | 3.37e6 |
| Cep164 (centrosomal protein 164) | DRSC20163 | 3.65e6 |
| CG3092 | DRSC04336 | 3.73e6 |
| CG34355 | DRSC13639 | 3.58e6 |
| CG34355 | DRSC14520 | 3.70e6 |
| CG34355 | DRSC14668 | 3.83e6 |
| CG34355 | DRSC21687 | 3.64e6 |
| Gdh (Glutamate dehydrogenase) | DRSC16679 | 3.55e6 |
| RPA3 (Replication protein A3) | DRSC19658 | 3.62e6 |
| toy (twin of eyeless) | DRSC17222 | 3.45e6 |
| CG6403 | DRSC16033 | 3.58e6 |
| Cpr65Eb (Cuticular protein 65Eb) | DRSC11026 | 3.44e6 |
| retinin | DRSC09940 | 3.67e6 |
| CG11151 | DRSC19387 | 3.61e6 |
| CG15128 | DRSC06550 | 3.49e6 |
| Yp3 (Yolk protein 3) | DRSC20302 | 3.43e6 |
| CG14757 | DRSC06492 | 3.66e6 |
| CG14868 | DRSC14991 | 2.05e6 |

Laid out differently: entries from further up.
target | amplicon | mean viability with MMS
Tomosyn | DRSC19365 | 3.16e6
Tomosyn | DRSC19692 | 3.70e6
Tomosyn | DRSC19782 | 3.43e6
Tomosyn | DRSC19842 | 3.59e6
CG10433 | DRSC04068 | 3.66e6
mRpL18 (mitochondrial ribosomal protein L18) | DRSC06142 | 3.54e6
tll (tailless) | DRSC17085 | 3.59e6
CG13360 | DRSC18536 | 3.38e6
